From PubChem BioAssay AID256 (DTP/NCI, 2004)
The list is a part of this screen's results and no random one: it gathers tests that were run many times, whatever their T/C, doses with no T/C, and many T/C values between a quarter and a half above the control. Other doses and runs of a compound stand elsewhere. T/C: endpoint of the treated group in % of that of the vehicle group. Some entries give survivors of the animals treated and no T/C: the source holds a T/C of zero for them, seemingly a mark for toxic or unscored doses. Some doses without a T/C left all or most animals alive at the check, yet need not have been tolerated: the source hardly ever lists a survival T/C far under the control, and the zero likely stands for such cases as well. Survivors were counted at the toxicity check, usually on the fifth day, unless a day is given; later deaths do not show. Schedule codes are those of the source, read here as Q, the interval in days (D) or hours (H), X, the number of doses. For survival time, the PubChem record calls one and a half times the control and up active, and a quarter to a half above the control has no call in these data; cut-offs in other NCI protocols can differ. Marks such as (2×) give the number of equal values in this list. Some entries hold several experiments; the values are given in rising order. Some T/C values are followed by the survivors on the day toxicity was checked, most often the fifth; where none is given, no animal had died by that day.

Tested on: CD2F1 mice, L1210 leukemia ip, survival T/C
Assay: NCI In Vivo Anticancer Drug Screen. Data for tumor model L1210 Leukemia (intraperitoneal) in CD2F1 (CDF1) mice
Conditions: higher T/C = longer survival
In short: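 Activity against a transplanted murine tumor was judged by comparing the compound group with a vehicle group. The outcome in the treated animals was divided by that in the controls.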

[1] = T/C endpoint: mean survival time, dose: 200.0 mg/kg/injection, schedule: Q01DX009 (ip), vehicle: saline with Tween-80
[2] = T/C endpoint: mean survival time, dose: 400.0 mg/kg/injection, schedule: Q01DX009 (ip), vehicle: saline with Tween-80
[3] = T/C endpoint: mean survival time, dose: 100.0 mg/kg/injection, schedule: Q01DX009 (ip), vehicle: saline with Tween-80
[4] = T/C endpoint: mean survival time, dose: 100.0 mg/kg/injection, schedule: Q04DX003 (ip), vehicle: saline with Tween-80
[5] = T/C endpoint: mean survival time, dose: 200.0 mg/kg/injection, schedule: Q04DX003 (ip), vehicle: saline with Tween-80
[6] = T/C endpoint: mean survival time, dose: 400.0 mg/kg/injection, schedule: Q04DX003 (ip), vehicle: saline with Tween-80
[7] = T/C endpoint: mean survival time, dose: 300.0 mg/kg/injection, schedule: Q01DX001 (ip), vehicle: saline

Question: What does the source list for NC(=S)N/N=C/c1ccc(O)cn1?
Answer: T/C (T/C endpoint: mean survival time, dose: 9.4 mg/kg/injection, schedule: Q01DX009 (ip), vehicle: saline with Tween-80, evaluated on day 30): 129 % of control (2×); T/C (T/C endpoint: mean survival time, dose: 9.4 mg/kg/injection, schedule: Q01DX009 (ip), vehicle: saline with Tween-80, evaluated on day 60): 137 % of control; T/C (T/C endpoint: mean survival time, dose: 12.5 mg/kg/injection, schedule: Q01DX009 (ip), vehicle: saline): 126 and 147 % of control; T/C (T/C endpoint: mean survival time, dose: 18.8 mg/kg/injection, schedule: Q01DX009 (ip), vehicle: saline with Tween-80): 140 and 147 % of control; T/C (T/C endpoint: mean survival time, dose: 25.0 mg/kg/injection, schedule: Q01DX009 (ip), vehicle: saline): 134 % of control; T/C (T/C endpoint: mean survival time, dose: 37.5 mg/kg/injection, schedule: Q01DX009 (ip), vehicle: saline with Tween-80): 147 % of control; T/C (T/C endpoint: mean survival time, dose: 50.0 mg/kg/injection, schedule: Q01DX009 (ip), vehicle: saline): 146 % of control; survivor count (T/C endpoint: mean survival time, dose: 150.0 mg/kg/injection, schedule: Q01DX009 (ip), vehicle: saline with Tween-80): 6 of 6; survivor count [1]: 6 of 10; survivor count (T/C endpoint: mean survival time, dose: 200.0 mg/kg/injection, schedule: Q01DX009 (ip), vehicle: saline): 6 of 6; survivor count [2]: 3 of 10; survivor count (T/C endpoint: mean survival time, dose: 400.0 mg/kg/injection, schedule: Q01DX009 (ip), vehicle: saline): 5 of 6; T/C (T/C endpoint: median survival time, dose: 10.0 mg/kg/injection, schedule: Q03HX024 (ip), vehicle: saline): 128 % of control; T/C (T/C endpoint: median survival time, dose: 11.25 mg/kg/injection, schedule: Q03HX024 (ip), vehicle: suspension in saline): 135 % of control; T/C (T/C endpoint: median survival time, dose: 72.5 mg/kg/injection, schedule: Q03HX008 (ip), vehicle: suspension in saline): 132 % of control; T/C (T/C endpoint: median survival time, dose: 90.0 mg/kg/injection, schedule: Q03HX024 (ip), vehicle: suspension in saline): 146 % of control; T/C (T/C endpoint: median survival time, dose: 108.3 mg/kg/injection, schedule: Q04DX003 (ip), vehicle: suspension in saline): 144 % of control; T/C (T/C endpoint: median survival time, dose: 180.0 mg/kg/injection, schedule: Q04DX003 (ip), vehicle: suspension in saline): 134 % of control

Question: For O=C1c2ccccc2C(=O)c2c(NCCCNCCO)ccc(NCCCNCCO)c21, which survivor count [3] is on record?
Answer: 3 of 6

Question: Which results are given for O=C1C=C(C2OC(CO)C(O)C2O)C(=O)N1 (centres undefined)?
Answer: survivor count (T/C endpoint: mean survival time, dose: 100.0 mg/kg/injection, schedule: Q01DX001 (ip), vehicle: saline with Tween-80): 0 of 6; survivor count (T/C endpoint: mean survival time, dose: 200.0 mg/kg/injection, schedule: Q01DX001 (ip), vehicle: saline with Tween-80): 0 of 6; survivor count (T/C endpoint: mean survival time, dose: 400.0 mg/kg/injection, schedule: Q01DX001 (ip), vehicle: saline with Tween-80): 0 of 6

Question: With O=C(O)CO.[NH2-].[NH2-].[Pt+2] as the compound, how does the T/C (T/C endpoint: median survival time, dose: 10.0 mg/kg/injection, schedule: Q04DX003 (ip), vehicle: saline) read?
Answer: 128 and 146 % of control

Question: How did the T/C (T/C endpoint: mean survival time, dose: 12.5 mg/kg/injection, schedule: Q01DX009 (ip), vehicle: other) turn out when CN(C)N=Nc1c(F)c(F)c(C(N)=O)c(F)c1F was run?
Answer: 127 % of control

Question: What about the T/C (T/C endpoint: mean survival time, dose: 25.0 mg/kg/injection, schedule: Q01DX009 (ip), vehicle: other) of the same compound?
Answer: 125 and 135 % of control

Question: And the T/C (T/C endpoint: mean survival time, dose: 50.0 mg/kg/injection, schedule: Q01DX009 (ip), vehicle: other)?
Answer: 129 % of control [5 of 6 alive]

Question: And the survivor count (T/C endpoint: mean survival time, dose: 100.0 mg/kg/injection, schedule: Q01DX009 (ip), vehicle: other)?
Answer: 3 of 6

Question: What about the survivor count (T/C endpoint: mean survival time, dose: 200.0 mg/kg/injection, schedule: Q01DX009 (ip), vehicle: other) of the same compound?
Answer: 2 of 6

Question: And the survivor count (T/C endpoint: mean survival time, dose: 400.0 mg/kg/injection, schedule: Q01DX009 (ip), vehicle: other)?
Answer: 0 of 6

Question: Which results are given for O=C1C=CC(=O)N1c1ccccc1[N+](=O)[O-]?
Answer: survivor count (T/C endpoint: mean survival time, dose: 25.0 mg/kg/injection, schedule: Q04DX003 (ip), vehicle: saline with Tween-80): 1 of 6; survivor count [4]: 0 of 6; survivor count [5]: 0 of 6; survivor count [6]: 0 of 6

Question: With Cc1c(F)c(F)c(C(=O)O)c(F)c1F as the compound, how does the survivor count [2] read?
Answer: 6 of 6

Question: N#Cc1nccnc1Cl was tested. Which survivor count [6] did it give?
Answer: 5 of 6

Question: NCCCC(N)C(=O)O (centres undefined) was tested. Which survivor count (T/C endpoint: median survival time, dose: 25.0 mg/kg/injection, schedule: Q04DX002 (ip), vehicle: saline) did it give?
Answer: 1 of 3

Question: What about the survivor count (T/C endpoint: median survival time, dose: 100.0 mg/kg/injection, schedule: Q04DX002 (ip), vehicle: saline) of the same compound?
Answer: 0 of 3

Question: And the survivor count (T/C endpoint: median survival time, dose: 200.0 mg/kg/injection, schedule: Q04DX002 (ip), vehicle: saline)?
Answer: 0 of 3

Question: And the survivor count (T/C endpoint: median survival time, dose: 400.0 mg/kg/injection, schedule: Q04DX002 (ip), vehicle: saline)?
Answer: 0 of 3

Question: For CC1CCC2(OC1)OC1CC3C4CCC5(C)CC(=O)CCC5(C)C4CCC3(C)C1C2C (centres undefined), which survivor count (T/C endpoint: mean survival time, dose: 400.0 mg/kg/injection, schedule: Q04DX002 (ip), vehicle: saline with Tween-80) is on record?
Answer: 3 of 3

Question: Which survivor count [1] does the source give for O=C(CCCN1CCC(O)CC1)c1ccccc1 here?
Answer: 3 of 6

Question: Which results are given for CN(C)N=Nc1ccc(Cl)cc1C(=O)O?
Answer: T/C (T/C endpoint: mean survival time, dose: 178.0 mg/kg/injection, schedule: Q04DX003 (ip), vehicle: other): 141 % of control; survivor count (T/C endpoint: mean survival time, dose: 600.0 mg/kg/injection, schedule: Q04DX003 (ip), vehicle: other): 5 of 6

Question: With CCCCCCCCCCCCCCCC(=O)OCC1OC(N2C=CC(=O)CC2=O)C(O)C1O (centres undefined) as the compound, how does the T/C (T/C endpoint: median survival time, dose: 6.0 mg/kg/injection, schedule: Q01DX009 (ip), vehicle: saline + alcohol) read?
Answer: 132 % of control

Question: And the T/C (T/C endpoint: median survival time, dose: 9.0 mg/kg/injection, schedule: Q01DX009 (ip), vehicle: saline + alcohol)?
Answer: 149 % of control

Question: Which survivor count (T/C endpoint: mean survival time, dose: 100.0 mg/kg/injection, schedule: Q04DX002 (ip), vehicle: saline with Tween-80) does the source give for O=C(O)c1c(Sc2ccccc2)cccc1Sc1ccccc1 here?
Answer: 2 of 3

Question: How did the T/C (T/C endpoint: mean survival time, dose: 50.0 mg/kg/injection, schedule: Q01DX005 (ip), vehicle: water) turn out when NC(=O)c1csc(C2OC(COP(=O)(O)O)C(O)C2O)n1 (centres undefined) was run?
Answer: 128 and 136 % of control

Question: And the T/C (T/C endpoint: mean survival time, dose: 200.0 mg/kg/injection, schedule: Q01DX005 (ip), vehicle: water)?
Answer: 145 % of control

Question: Nc1nc(N)c2nc(-c3ccc(Cl)c(Cl)c3)c(N)nc2n1 was tested. Which survivor count (T/C endpoint: mean survival time, dose: 200.0 mg/kg/injection, schedule: Q01DX009 (ip), vehicle: water) did it give?
Answer: 3 of 3

Question: Which survivor count [3] does the source give for Cc1ccc([Si](OO[Si](c2ccccc2)(c2ccccc2)c2ccc(C)cc2)(c2ccccc2)c2ccccc2)cc1 here?
Answer: 6 of 6

Question: And the survivor count [1]?
Answer: 6 of 6

Question: And the survivor count [2]?
Answer: 6 of 6

Question: For CCOC(=O)c1c(C)c2c(n1C)CC/C(=C\O)C2=O, which survivor count (T/C endpoint: mean survival time, dose: 200.0 mg/kg/injection, schedule: Q04DX002 (ip), vehicle: other) is on record?
Answer: 0 of 3

Question: What about the survivor count (T/C endpoint: mean survival time, dose: 400.0 mg/kg/injection, schedule: Q04DX002 (ip), vehicle: other) of the same compound?
Answer: 0 of 3

Question: Which survivor count (T/C endpoint: mean survival time, dose: 100.0 mg/kg/injection, schedule: Q04DX003 (ip), vehicle: DMSO) does the source give for COc1ccc2c(c1OC(C)=O)-c1cc(O)cc3c1C(C2)N(C(=O)CN(CCCl)CCCl)CC3 (centres undefined) here?
Answer: 5 of 6

Question: Which survivor count (T/C endpoint: mean survival time, dose: 200.0 mg/kg/injection, schedule: Q04DX003 (ip), vehicle: saline) does the source give for CCCCC1CCC(N)CC1 (centres undefined) here?
Answer: 0 of 6

Question: And the survivor count (T/C endpoint: mean survival time, dose: 400.0 mg/kg/injection, schedule: Q04DX003 (ip), vehicle: saline)?
Answer: 0 of 6

Question: Which survivor count (T/C endpoint: mean survival time, dose: 50.0 mg/kg/injection, schedule: Q04DX003 (ip), vehicle: saline with Tween-80) does the source give for O=C(C=C(C(F)(F)F)C(F)(F)F)c1cccc([N+](=O)[O-])c1 here?
Answer: 2 of 6

Question: What about the survivor count [4] of the same compound?
Answer: 3 of 6

Question: And the survivor count [5]?
Answer: 1 of 6

Question: What about the survivor count [6] of the same compound?
Answer: 0 of 6

Question: With N#CCC(=O)O as the compound, how does the survivor count (T/C endpoint: mean survival time, dose: 150.0 mg/kg/injection, schedule: Q04DX003 (ip), vehicle: saline) read?
Answer: 6 of 6

Question: For C[n+]1ccc(/C=C\Nc2ccccn2)cc1, which survivor count [7] is on record?
Answer: 2 of 6

Question: How did the T/C (T/C endpoint: mean survival time, dose: 360.0 mg/kg/injection, schedule: Q01DX009 (ip), vehicle: saline) turn out when CCOC(=O)NP(=O)(N1CC1(C)C)N1CC1(C)C (centres undefined) was run?
Answer: 145 % of control

Question: How did the survivor count (T/C endpoint: mean survival time, dose: 100.0 mg/kg/injection, schedule: Q04DX002 (ip), vehicle: saline) turn out when COc1cc(OC)c(CNC2CCCCCCC2)c(OC)c1 was run?
Answer: 1 of 3

Question: What about the survivor count (T/C endpoint: mean survival time, dose: 200.0 mg/kg/injection, schedule: Q04DX002 (ip), vehicle: saline) of the same compound?
Answer: 0 of 3

Question: What about the survivor count (T/C endpoint: mean survival time, dose: 400.0 mg/kg/injection, schedule: Q04DX002 (ip), vehicle: saline) of the same compound?
Answer: 0 of 3

Question: CC(C)COC(=N)c1ccccc1C1(O)CCCCC1 was tested. Which survivor count [6] did it give?
Answer: 0 of 6

Question: CSc1[nH]c2ncnc(Cl)c2c1C#N was tested. Which survivor count [7] did it give?
Answer: 0 of 6
